{"sequences": {"note": "By UniProt entry, the sequences of proteins in these tests, tags left out. Where a name states a change or a piece, a line headed by the entry shows the natural chain unless it says otherwise.", "UniProt P08067": "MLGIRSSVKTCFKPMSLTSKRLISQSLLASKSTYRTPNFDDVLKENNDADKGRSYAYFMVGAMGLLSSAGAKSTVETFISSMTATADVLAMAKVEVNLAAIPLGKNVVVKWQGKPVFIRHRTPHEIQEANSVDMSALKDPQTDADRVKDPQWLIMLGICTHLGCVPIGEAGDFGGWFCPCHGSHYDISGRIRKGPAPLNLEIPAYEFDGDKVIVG"}, "source": "paper PMC12219900", "about": "“Mechanistic insights into Bcs1-mediated mitochondrial membrane translocation of the folded Rieske protein” (The EMBO Journal, 2025)", "key": {"[1]": {"target": "T1, Bcs1 (yeast Bcs1 heptamer) (S. cerevisiae) (UniProt P32839)", "T1 sequence": "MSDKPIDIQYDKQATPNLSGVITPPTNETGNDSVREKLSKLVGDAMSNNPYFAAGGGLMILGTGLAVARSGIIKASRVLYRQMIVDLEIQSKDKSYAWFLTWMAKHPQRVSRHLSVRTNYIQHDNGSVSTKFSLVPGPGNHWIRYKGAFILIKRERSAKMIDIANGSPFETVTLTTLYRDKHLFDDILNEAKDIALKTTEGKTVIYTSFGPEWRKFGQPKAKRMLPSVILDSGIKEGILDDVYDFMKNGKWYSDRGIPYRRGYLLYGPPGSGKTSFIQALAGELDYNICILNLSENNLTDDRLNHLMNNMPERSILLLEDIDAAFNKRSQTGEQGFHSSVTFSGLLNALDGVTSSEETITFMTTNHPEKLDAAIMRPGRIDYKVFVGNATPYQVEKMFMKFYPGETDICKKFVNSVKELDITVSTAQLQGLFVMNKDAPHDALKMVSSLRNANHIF", "experiment": "cryo-EM structure; Bcs1 first incubated with Rip1-FeS in BN-buffer with 2.5 mM MgCl2 for 10 min at 25 °C, then 2 mM ATPγS for 10 min; ATPγS2 state; both purified"}, "[2]": {"target": "T1, Bcs1 (yeast Bcs1 heptamer) (S. cerevisiae)", "experiment": "native gel or EMSA; Blue native PAGE; Bcs1 incubated with Rip1-FeS for 10 min at 25 °C first, then 1 mM ATPγS, 2 mM MgCl2 for 10 min (Fig. 4A lane 6); both purified"}, "[3]": {"target": "T1, Bcs1 (yeast Bcs1 heptamer) (S. cerevisiae)", "experiment": "native gel or EMSA; Blue native PAGE; 30 pmol Bcs1 (heptamer) with Rip1 from 0 up to tenfold molar excess, no nucleotide; BN-buffer (15 mM HEPES pH 7.5, 30 mM KCl, 5% glycerol, 0.1% digitonin), 10 min at 25 °C; both purified"}, "[4]": {"target": "T1, Bcs1 (yeast Bcs1 heptamer) (S. cerevisiae)", "experiment": "cryo-EM structure; in vitro reconstituted; 30 pmol Bcs1 (heptamer) with 10-fold excess of Rip1-FeS or Rip1-TM, 20 min at 25 °C in BN-buffer, no nucleotide (Apo1 state); both purified"}, "[5]": {"target": "T1, Bcs1 (yeast Bcs1 heptamer) (S. cerevisiae)", "experiment": "'biochemically or by cryo-EM' (not further described); Bcs1 in the ADP-bound state; both purified"}, "[6]": {"target": "T1, Bcs1 (yeast Bcs1 heptamer) (S. cerevisiae)", "experiment": "condition: only Rip1-FeS with β-mercaptoethanol (disulfide C164-C180 reduced); native gel or EMSA; Blue native PAGE; Rip1-FeS with β-mercaptoethanol compared to Rip1-FeS purified in the absence of β-mercaptoethanol, added to Bcs1; both purified"}}, "note": "Results are given in words; binding and its absence hold for the method and conditions named. For part of these data: Binding calls can cover weak binding; strength is not graded here.", "data": [{"substance": "Rip1-FeS (C-terminal FeS domain of Rip1, lacking the N-terminal TM segment) (from UniProt P08067) (domain or fragment)", "values": [{"measurement": "binding", "setting": "[1]", "value": "binds"}, {"measurement": "binding", "setting": "[2]", "value": "binds"}, {"measurement": "binding", "setting": "[3]", "value": "binds"}, {"measurement": "binding", "setting": "[4]", "value": "binds"}, {"measurement": "binding", "setting": "[5]", "value": "no binding (only Bcs1 in the ADP-bound state)"}, {"measurement": "binding", "setting": "[6]", "value": "no binding"}]}]}
